Results deposited as PubChem BioAssay AID1671195 (Yale University, 2021).
The deposit covers about 22,000 reagents; this is a part drawn at random. About 1,510 of them (6.9%) count as active. 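Active includes knockdowns raising or lowering LDL uptake; positive z-scores mean more uptake, negative mean less.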 The numbers tell different reagents against one gene apart.

Assay: 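Genes whose knockdown alters LDL uptake in liver cancer cells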 (primary screen)
System: human Huh7 hepatoma cells
Reagent: siRNA pool against human genes, 18 nM
Timing: about 2 to 2.5 days of knockdown, then 8 h LDL uptake
Conditions: DiI-labelled LDL at 30 µg/ml for 8 h, in lipoprotein-deficient serum medium
Measurement: 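Fluorescent LDL signal imaged in cells, scaled to the plate median, robust z-score for each replicate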
Reading the numbers: robust z-score: higher = more LDL uptake after knockdown
Rule for the call: 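Active when two or more replicates show a robust z-score above 2 or below -2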

gene	reagent no.	robust z-score, replicate 1	robust z-score, replicate 2	robust z-score, replicate 3	outcome
TRMO	1	0.344	-1.32	-1	inactive
EIF3G	1	-0.842	1.19	-0.73	inactive
SOHLH1	1	0.288	0.619	-0.0301	inactive
TNFRSF14	1	1.02	0.656	0.197	inactive
COMT	1	-0.43	-0.546	-0.0294	inactive
OR5T3	1	0.598	0.785	0.173	inactive
NUDT13	1	0.913	-1.21	-0.369	inactive
IFNA5	1	0.224	0.133	0.864	inactive
RNF168	1	-0.608	-0.0125	-0.2	inactive
LOC442451 (retired record)	1	-0.893	-0.904	-0.739	inactive
TASL	1	0.667	0.163	0.103	inactive
LOC442159 (retired record)	1	-1.65	-1.38	-1.07	inactive
KIAA1210	1	-0.995	-1.93	-2.15	active
FGFR4	1	-0.129	-1.11	-1.28	inactive
GCNT4	1	0.988	1.36	1.2	inactive
MST1	1	-2.1	-1.84	-1.6	inactive
RRN3	1	-0.12	-0.256	0.0364	inactive
TTLL7	1	0.335	-0.338	0.347	inactive
BORCS5	1	-0.117	0.0385	0.836	inactive
ARVP6125 (retired record)	1	-0.779	-0.487	-0.523	inactive
IDI1	1	0.325	0.18	0.0701	inactive
ACTR3BP2	1	1.73	1.72	2.13	inactive
C1QL4	1	-1.44	-1.39	-1.33	inactive
SLC38A3	1	-0.206	0.614	-0.977	inactive
LOC387901 (retired record)	1	-0.729	-0.848	-0.922	inactive
TOP6BL	1	-2.03	-2.29	-1.86	active
VWA5A	1	-0.333	-0.169	0.121	inactive
TRAF7	1	0.0983	0.335	-0.159	inactive
FPR3	1	-1.78	-0.741	-1.35	inactive
ACTG2	1	-1.09	-0.935	-0.482	inactive
ATP2B4	1	-0.372	-0.101	-0.837	inactive
DOP1A	1	1.53	0.257	0.7	inactive
GPX2	1	1.6	1.63	0.957	inactive
FIBIN	1	0.515	-0.401	0.198	inactive
RAX2	1	0.954	0.766	0.635	inactive
SLC49A4	1	-0.442	-0.261	-0.487	inactive
DNAJB14	1	-0.547	-0.682	-0.329	inactive
SPMIP8	1	-1.13	-0.835	-0.895	inactive
CEP170P1	1	-1.66	-1.7	-1.86	inactive
NOL4L	1	-1.34	-1.32	-1.37	inactive
PALD1	1	-1.39	1.57	0.569	inactive
PABPC4	1	-0.632	-0.877	-0.944	inactive
WNT5A	1	-0.445	1.15	-0.97	inactive
NRIP2	1	1.57	0.478	1.49	inactive
DNAH12	1	-0.122	0.112	-0.295	inactive
DNAH12	2	-1.48	-1.09	-1.3	inactive
